{"source": "the supplement of paper PMC4749390", "note": "Structures can show the parent of a compound that is named as a salt. The list shows a part of the results. This data set is noisy: repeats of one test often differ as much as different tests do.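 JEG3 cells stably express tetracycline-inducible wild-type human LRH-1, a highly sumoylated nuclear receptor. SUMO-sensitive transcripts APOC3 and MUC1, increased by SUMO-deficient LRH-1 or UBC9 knockdown, were quantified by RT-qPCR relative to TBP and DMSO controls. Primary hits had robust Z-scores above +2 or below -2, before toxicity and TBP filtering.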"}
{"tested_on": "JEG3 expressing hLRH-1", "assay": "MUC1 transcript change (ddCt vs TBP and DMSO), Z-score over library; higher = higher MUC1 expression", "settings": "10 µM; time (hr): 24"}
{"smiles": "O=C(O)P(=O)(O)O", "note": "[foscarnet sodium]", "MUC1 transcript change (Z-score)": 0.414}
{"smiles": "CC(C)(CO)C(O)C(=O)NCCC(=O)NCCSSCCNC(=O)CCNC(=O)C(O)C(C)(C)CO", "note": "(stereo not drawn) [pantethine]", "MUC1 transcript change (Z-score)": -0.62}
{"smiles": "CC(C)[N+]1(C)C2CC[C@H]1C[C@@H](OC(=O)C(CO)c1ccccc1)C2", "note": "(stereo partly drawn) [ipratropium bromide]", "MUC1 transcript change (Z-score)": -0.427}
{"smiles": "CC1Cc2ccccc2N1NC(=O)c1ccc(Cl)c(S(N)(=O)=O)c1", "note": "(stereo not drawn) [indapamide]", "MUC1 transcript change (Z-score)": 0.928}
{"smiles": "CCOC(=O)Nc1nc2ccccc2[nH]1", "note": "[lobendazole]", "MUC1 transcript change (Z-score)": 0.756}
{"smiles": "N#CC(c1ccc(Cl)cc1)c1c(Cl)cc(-n2ncc(=O)[nH]c2=O)cc1Cl", "note": "(stereo not drawn) [diclazuril]", "MUC1 transcript change (Z-score)": 1.69}
{"smiles": "OCc1ccccc1O[C@@H]1O[C@H](CO)[C@@H](O)[C@H](O)[C@H]1O", "note": "[salicin]", "MUC1 transcript change (Z-score)": -4.23}
{"smiles": "N[C@H]1CONC1=O", "note": "[levcycloserine]", "MUC1 transcript change (Z-score)": 0.567}
{"smiles": "CC(=O)Nc1ccc(OC(=O)c2ccccc2O)cc1", "note": "[acetaminosalol]", "MUC1 transcript change (Z-score)": -0.85}
{"smiles": "CC(C)(CO)[C@@H](O)C(=O)NCCC(=O)O", "note": "[pantothenic acid(d) na salt]", "MUC1 transcript change (Z-score)": 0.783}
{"smiles": "CC(Cc1cccc(C(F)(F)F)c1)NCCOC(=O)c1ccccc1", "note": "(stereo not drawn) [benfluorex hydrochloride]", "MUC1 transcript change (Z-score)": 1.08}
{"smiles": "CC1CCC(NC(=O)N(CCCl)N=O)CC1", "note": "(stereo not drawn) [semustine]", "MUC1 transcript change (Z-score)": 0.0218}
{"smiles": "CC(C)CC(NC(=O)C(C)NC(=O)CNC(=O)C(NC=O)C(C)C)C(=O)NC(C)C(=O)NC(C(=O)NC(C(=O)NC(C(=O)NC(Cc1c[nH]c2ccccc12)C(=O)NC(CC(C)C)C(=O)NC(Cc1c[nH]c2ccccc12)C(=O)NC(CC(C)C)C(=O)NC(Cc1c[nH]c2ccccc12)C(=O)NC(CC(C)C)C(=O)NC(Cc1c[nH]c2ccccc12)C(=O)NCCO)C(C)C)C(C)C)C(C)C", "note": "(stereo not drawn) [gramicidin (gramicidin a shown)]", "MUC1 transcript change (Z-score)": -0.538}
{"smiles": "CC#C[C@]1(O)CC[C@H]2[C@@H]3CCC4=CC(=O)CCC4=C3[C@@H](c3ccc(N(C)C)cc3)C[C@@]21C", "note": "[mifepristone]", "MUC1 transcript change (Z-score)": -0.873}
{"smiles": "Cc1ccc(N(CC2=NCCN2)c2cccc(O)c2)cc1", "note": "[Phentolamine mesylate]", "MUC1 transcript change (Z-score)": 0.308}
{"smiles": "CC(C)n1c(/C=C/[C@@H](O)C[C@@H](O)CC(=O)O)c(-c2ccc(F)cc2)c2ccccc21", "note": "[fluvastatin]", "MUC1 transcript change (Z-score)": -0.129}
{"smiles": "CC(CN(C)C)CN1c2ccccc2Sc2ccccc21", "note": "(stereo not drawn) [trimeprazine tartrate]", "MUC1 transcript change (Z-score)": -0.439}
{"smiles": "O=c1ccc2ccccc2o1", "note": "[coumarin]", "MUC1 transcript change (Z-score)": 0.892}
{"smiles": "CC(=O)Nc1c(I)c(NC(C)=O)c(I)c(C(=O)O)c1I", "note": "[diatrizoic acid]", "MUC1 transcript change (Z-score)": 0.368}
{"smiles": "CC1(C)O[C@@H]2C[C@H]3[C@@H]4C[C@H](F)C5=CC(=O)C=C[C@]5(C)[C@@]4(F)[C@@H](O)C[C@]3(C)[C@]2(C(=O)CO)O1", "note": "[fluocinolone acetonide]", "MUC1 transcript change (Z-score)": -0.0491}
{"smiles": "COc1cc(NS(=O)(=O)c2ccc(N)cc2)ncn1", "note": "[sulfamonomethoxine]", "MUC1 transcript change (Z-score)": 0.537}
{"smiles": "Cc1cc(C)nc(NS(=O)(=O)c2ccc(N)cc2)n1", "note": "[sulfamethazine]", "MUC1 transcript change (Z-score)": 0.316}
{"smiles": "C[C@@H]1C/C=C/C=C/C=C/C=C/[C@H](O[C@@H]2O[C@H](C)[C@@H](O)[C@H](N)[C@@H]2O)C[C@@H]2O[C@](O)(C[C@@H](O)C[C@H]3O[C@@H]3/C=C/C(=O)O1)C[C@H](O)[C@H]2C(=O)O", "note": "[natamycin]", "MUC1 transcript change (Z-score)": 0.322}
{"smiles": "Cc1ncc([N+](=O)[O-])n1CC(C)O", "note": "(stereo not drawn) [secnidazole]", "MUC1 transcript change (Z-score)": 0.508}
{"smiles": "CO/C(O)=C1/C(C)=NC(C)=C(C(=O)OCCN2CCN(C(c3ccccc3)c3ccccc3)CC2)C1c1cccc([N+](=O)[O-])c1", "note": "(stereo not drawn) [manidipine hydrochloride]", "MUC1 transcript change (Z-score)": 0.683}
{"smiles": "CCC(=O)OCC(=O)C1(OC(=O)CC)C(C)CC2C3CCC4=CC(=O)C=CC4(C)C3(Cl)C(O)CC21C", "note": "(stereo not drawn) [beclomethasone dipropionate]", "MUC1 transcript change (Z-score)": -0.18}
{"smiles": "CC(=O)OCC(=O)[C@@]12OC3(CCCC3)O[C@@H]1C[C@H]1[C@@H]3CCC4=CC(=O)C=C[C@]4(C)[C@@]3(F)[C@@H](O)C[C@@]12C", "note": "[amcinonide]", "MUC1 transcript change (Z-score)": -1.27}
{"smiles": "CC1COc2c(N3CCN(C)CC3)c(F)cc3c(=O)c(C(=O)O)cn1c23", "note": "(stereo not drawn) [ofloxacin]", "MUC1 transcript change (Z-score)": 0.0526}
{"smiles": "NC(=O)c1ccc([N+](=O)[O-])cc1Cl", "note": "[aklomide]", "MUC1 transcript change (Z-score)": -0.477}
{"smiles": "CN1CCN(c2cc3c(cc2F)c(=O)c(C(=O)O)cn3-c2ccc(F)cc2)CC1", "note": "[difloxacin hydrochloride]", "MUC1 transcript change (Z-score)": -0.224}
{"smiles": "C#C[C@]1(OC(C)=O)CC[C@H]2[C@@H]3CCC4=CC(=O)CC[C@@H]4[C@H]3CC[C@@]21C", "note": "[norethindrone acetate]", "MUC1 transcript change (Z-score)": 0.134}
{"smiles": "CCCCOC(=O)c1ccc(O)cc1", "note": "[butyl paraben]", "MUC1 transcript change (Z-score)": 0.267}
{"smiles": "N=C(N)NS(=O)(=O)c1ccc(N)cc1", "note": "[sulfaguanidine]", "MUC1 transcript change (Z-score)": -1.21}
{"smiles": "Sc1[nH]cnc2ncnc1-2", "note": "[mercaptopurine]", "MUC1 transcript change (Z-score)": 1.51}
{"smiles": "O=C(c1ccccc1)c1ccc2n1CCC2C(=O)O", "note": "(stereo not drawn) [ketorolac tromethamine]", "MUC1 transcript change (Z-score)": 0.871}
{"smiles": "Oc1[nH]cnc2nncc1-2", "note": "[Allopurinol]", "MUC1 transcript change (Z-score)": 0.118}
{"smiles": "CC[C@H](C)C(=O)O[C@H]1C[C@H](O)C=C2C=C[C@H](C)[C@H](CC[C@@H](O)C[C@@H](O)CC(=O)O)[C@H]21", "note": "[pravastatin sodium]", "MUC1 transcript change (Z-score)": -0.234}
{"smiles": "C=C(NC(=O)C(=C)NC(=O)c1csc(C2=NC3c4csc(n4)C4NC(=O)c5csc(n5)C(C(C)(O)C(C)O)NC(=O)C5CSC(=N5)/C(=C\\C)NC(=O)C(C(C)O)NC(=O)c5csc(n5)C3(CC2)NC(=O)C(C)NC(=O)C(=C)NC(=O)C(C)NC(=O)C(C(C)CC)NC2C=Cc3c(C(C)O)cc(nc3C2O)C(=O)OC4C)n1)C(N)=O", "note": "(stereo not drawn) [thiostrepton]", "MUC1 transcript change (Z-score)": 1.08}
{"smiles": "COc1ccc2nc3cc(Cl)ccc3c(Nc3cc(CN4CCCC4)c(O)c(CN4CCCC4)c3)c2n1", "note": "[pyronaridine tetraphosphate]", "MUC1 transcript change (Z-score)": -0.323}
{"smiles": "OCC(S)CS", "note": "(stereo not drawn) [dimercaptopropanol]", "MUC1 transcript change (Z-score)": -0.499}
{"smiles": "[Li+]", "note": "[lithium citrate]", "MUC1 transcript change (Z-score)": 0.996}
{"smiles": "COc1ccc(C2C(=O)c3ccccc3C2=O)cc1", "note": "[anisindione]", "MUC1 transcript change (Z-score)": 0.541}
{"smiles": "CCC(=O)OCC(=O)[C@@]1(OC(=O)CC)[C@H](C)CC2C3C([C@@H](O)C[C@@]21C)[C@@]1(C)C=CC(=O)C=C1C[C@H]3Cl", "note": "(stereo partly drawn) [alclometazone dipropionate]", "MUC1 transcript change (Z-score)": -1.18}
